Test results taken from patent publication US20240317708A1, “INHIBITORS OF TRANSGLUTAMINASES” (ZEDIRA GMBH, priority 2021, published 2024).
Structures were worked out from names or drawings and are uncertain.

Sequences of proteins named here, by UniProt entry; tags and fusion partners are left off.
UniProt P21980, whole entry: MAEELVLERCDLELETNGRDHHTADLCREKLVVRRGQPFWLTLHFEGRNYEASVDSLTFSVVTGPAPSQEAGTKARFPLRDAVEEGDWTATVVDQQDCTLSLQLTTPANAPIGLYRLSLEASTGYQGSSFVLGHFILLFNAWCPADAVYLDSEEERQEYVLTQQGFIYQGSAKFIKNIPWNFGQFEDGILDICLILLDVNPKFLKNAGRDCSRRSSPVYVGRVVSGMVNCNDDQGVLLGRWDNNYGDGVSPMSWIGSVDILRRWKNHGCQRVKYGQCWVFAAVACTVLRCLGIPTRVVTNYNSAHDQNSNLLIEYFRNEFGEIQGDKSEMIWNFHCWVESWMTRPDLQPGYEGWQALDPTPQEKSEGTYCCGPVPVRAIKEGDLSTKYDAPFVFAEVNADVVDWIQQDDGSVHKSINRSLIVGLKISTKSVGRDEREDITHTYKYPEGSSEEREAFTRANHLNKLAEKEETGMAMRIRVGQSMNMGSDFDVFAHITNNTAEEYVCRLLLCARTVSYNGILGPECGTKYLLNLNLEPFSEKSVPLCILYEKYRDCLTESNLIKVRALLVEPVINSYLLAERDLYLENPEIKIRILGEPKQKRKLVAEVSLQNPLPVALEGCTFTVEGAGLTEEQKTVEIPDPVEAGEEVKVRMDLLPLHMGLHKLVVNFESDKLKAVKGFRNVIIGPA

Legend:
Caco-2 barrier = system: Caco-2 barrier
Method: Permeability coefficients (Papp values) were obtained from Caco-2 barrier studies predicting oral/intestinal bioavailability of the tested compounds. The assays were performed by using CacoReady™ ready-to-use kits from ReadyCell according to the manufacturers protocol.

[1] = target: recombinant human transglutaminase 2 (Homo sapiens, UniProt P21980); test: Transglutaminase assay (dansylcadaverine incorporation into dimethylcasein, DCC-assay); conditions: read-out: IC50 TG2, recombinant human TG2 10 nM, 37° C.
Method: For the determination of potency of inhibitors against tissue transglutaminase, the incorporation of dansylcadaverine into dimethylcasein (Zedira product T036, Lorand et al., Anal Biochem, 1971, 44:221-31) was measured using recombinant human transglutaminase 2 (Zedira Product T022).
The tissue transglutaminase is diluted in buffer (50 mM Tris-HCl, 7.5 mM CaCl2, 150 mM NaCl, pH=7.4). The final concentration of TG2 in the assay is 10 nM.
A 10 mM inhibitor stock solution is prepared in DMSO, and from this a serial 1:2-fold dilution series is prepared also in DMSO. Each of the initial dilutions is subsequently diluted 1:50-fold with buffer (50 mM Tris-HCl, 7.5 mM CaCl2, 150 mM NaCl, pH=7.4) to yield the final working dilutions containing 2% (v/v) DMSO.
15 μl of inhibitor working dilution are added per well of a 96 well microtiter plate. As control, 15 μl of a 2% (v/v) DMSO solution prepared using the buffer mentioned above are added per well.
Immediately before starting the assay, 600 μl transglutaminase working solution are added to 11.4 ml assay buffer (50 mM Tris-HCl, 10 mM CaCl2, 10 mM glutathione, 2.5% glycerol, 16.7 μM dansylcadaverine, 4 μM N,N-dimethylcasein, 200 mM NaCl, pH=8.0). […]
Increase in fluorescence is measured using λex=330 nm and λem=500 nm at 37° C. for 30 min. […]
Analysis of enzymatic activity is performed by calculation of the slope of an increase in fluorescence intensity. […]

- Papp (Caco-2 barrier): 1 to 10 ×10⁻⁶ cm/s
- IC50 [1]: 250 to 1500 nM
Structure (SMILES): Cc1nc(-c2ccccc2)sc1C(=O)N[C@@H](CC/C=C/C(=O)OCc1ccccc1)C(=O)Nc1cccn(CC(=O)NC23CC(C2)C3)c1=O
